Measurements from patent publication US6645984B2, “Arylisoxazoline derivatives, processes for their preparation and their use as pesticides” (Aventis CropScience GmbH, priority 2001, dated 2003).
Some entries share one result that the patent states for a list of compounds.

Test system: Aphis fabae
Assay: Effect on the aphid Aphis fabae (leaf dip, bean plants)
Type: in vivo
Conditions: 500 ppm (content of active compound); leaf and aphids dipped 5 seconds; after 6 days; all stages of the aphid

SMILES	mortality
O=C(Nc1ccc(C(F)(F)F)cc1)C1CC(c2ccc(C3COC(c4c(F)cccc4F)=N3)cc2)=NO1 (centres unmarked) [Example 103]	80-100%
CC(C)(C)NC(=O)C1CC(c2ccc(C3COC(c4c(F)cccc4F)=N3)cc2)=NO1 (centres unmarked) [Example 96]	80-100%
